From publication PMC7515710

Experiments:
[1] = molecular target: His6-3xFlag fused Mmp-RpoL (subunit L of the archaeal RNA polymerase of M. maripaludis) (Methanococcus maripaludis S2); experiment: tandem affinity purification (TAP); about 20 mg cell extract of strain Mmp-RpoL-HF first purified by His-tag affinity chromatography, concentrated, imidazole removed, then anti-Flag immunoprecipitation; western blot for Mmp-aCPSF1; S2 as mock control
[2] = molecular target: His6-3xFlag fused Mmp-RpoL (subunit L of the archaeal RNA polymerase of M. maripaludis) (Methanococcus maripaludis S2); experiment: pull-down; His-tag affinity chromatography: about 20 mg cell extract of strain Mmp-RpoL-HF on a His-Trap HP column; western blot for Mmp-aCPSF1; S2 as mock control
[3] = molecular target: His6-3xFlag fused Mmp-RpoL (subunit L of the archaeal RNA polymerase of M. maripaludis) (Methanococcus maripaludis S2); experiment: co-IP; anti-FLAG M2 magnetic beads added to 5 mg pretreated cell extract of strain Mmp-RpoL-HF, 8 h at 4°C, five washes with lysis buffer, eluted with 3x FLAG peptide; western blot for Mmp-aCPSF1; extract untreated or treated with RNase, DNase or Benzonase; S2 as mock control

Measured: binding

B1: Mmp-aCPSF1 (archaeal ribonuclease aCPSF1 of Methanococcus maripaludis) (enzyme, UniProt Q6LZD5 1-635)
chain: MSAEDILNEIKAAVINKAPGNAVITDVEFEGSEVVIYAKNPELFSNNLIKEFARDFRKRLAIRPDPSVLVEPDIAKDKILKIVPEDAEITNCIFDANTGEVIIESKKPGLVIGKEGSTLEDIKKAIQWAPKPVRTPPIPSDTIKAIRATMYRERADVKDILRRIGRRIHRDVRLRDDSWVRTSFLGGSREVGRTCLYHQTPESRILVDCGINIAVEDEKAFPHFDAPEFSIEEIDAVVVTHAHLDHCGFIPGLFRYGYDGPVYCTKPTRDLMTLLQKDYVDITEKEGKNVPYSSKDIKNCIKHTIPLDYGVTTDIAPAIKLTMHNAGHILGSAIAHCHVGDGLYNVAYTGDIKFEASRLLEPAVCQFPRLETLIIESTYGGYDDVLPERDETEKEFLRVIAETIARKGKAIIPVFGIGRAQELMLVLEEGYNQGIFNAPVYLDGMIWEATAIHTAYPEYLSKNMRNRIFHEGDNPFLSEVFKKVKNTNDRRNIMDSDEPGIILTTSGMLSGGPSVEYFKNLADDEKNSIVFVGYQSEGTLGRKIQKGFKEIPLMGKNGRSKAVKVNLSVHTLEGFSGHSDRKQLIKYLRKLKPIPDRILTVHGEVSKCIDLASTAYKLFKKETKAPMNLDSIRLR
binds: all assays above

Results are given in words; binding and its absence hold for the method and conditions named. A result given as binding can be weak or reduced; the word gives no strength. For part of these data: In cells and extracts the contact can be indirect.
